Laboratory results taken from paper doi:10.1101/2025.10.30.685510.
Read-outs that look alike come from different tables or passages of the source. These are yes or no findings as the source states them, for the method shown. Binding seen in cells or lysates may run through a third protein. For part of these data: A result given as binding can be weak or reduced; the word gives no strength. Tags and fused reporters may be left off the sequences shown.

Columns and labels:
[1] = target: T1, EssC with a C-terminal Twin-Strep tag (Staphylococcus aureus) (UniProt Q2G184); test: pull-down
T1 sequence: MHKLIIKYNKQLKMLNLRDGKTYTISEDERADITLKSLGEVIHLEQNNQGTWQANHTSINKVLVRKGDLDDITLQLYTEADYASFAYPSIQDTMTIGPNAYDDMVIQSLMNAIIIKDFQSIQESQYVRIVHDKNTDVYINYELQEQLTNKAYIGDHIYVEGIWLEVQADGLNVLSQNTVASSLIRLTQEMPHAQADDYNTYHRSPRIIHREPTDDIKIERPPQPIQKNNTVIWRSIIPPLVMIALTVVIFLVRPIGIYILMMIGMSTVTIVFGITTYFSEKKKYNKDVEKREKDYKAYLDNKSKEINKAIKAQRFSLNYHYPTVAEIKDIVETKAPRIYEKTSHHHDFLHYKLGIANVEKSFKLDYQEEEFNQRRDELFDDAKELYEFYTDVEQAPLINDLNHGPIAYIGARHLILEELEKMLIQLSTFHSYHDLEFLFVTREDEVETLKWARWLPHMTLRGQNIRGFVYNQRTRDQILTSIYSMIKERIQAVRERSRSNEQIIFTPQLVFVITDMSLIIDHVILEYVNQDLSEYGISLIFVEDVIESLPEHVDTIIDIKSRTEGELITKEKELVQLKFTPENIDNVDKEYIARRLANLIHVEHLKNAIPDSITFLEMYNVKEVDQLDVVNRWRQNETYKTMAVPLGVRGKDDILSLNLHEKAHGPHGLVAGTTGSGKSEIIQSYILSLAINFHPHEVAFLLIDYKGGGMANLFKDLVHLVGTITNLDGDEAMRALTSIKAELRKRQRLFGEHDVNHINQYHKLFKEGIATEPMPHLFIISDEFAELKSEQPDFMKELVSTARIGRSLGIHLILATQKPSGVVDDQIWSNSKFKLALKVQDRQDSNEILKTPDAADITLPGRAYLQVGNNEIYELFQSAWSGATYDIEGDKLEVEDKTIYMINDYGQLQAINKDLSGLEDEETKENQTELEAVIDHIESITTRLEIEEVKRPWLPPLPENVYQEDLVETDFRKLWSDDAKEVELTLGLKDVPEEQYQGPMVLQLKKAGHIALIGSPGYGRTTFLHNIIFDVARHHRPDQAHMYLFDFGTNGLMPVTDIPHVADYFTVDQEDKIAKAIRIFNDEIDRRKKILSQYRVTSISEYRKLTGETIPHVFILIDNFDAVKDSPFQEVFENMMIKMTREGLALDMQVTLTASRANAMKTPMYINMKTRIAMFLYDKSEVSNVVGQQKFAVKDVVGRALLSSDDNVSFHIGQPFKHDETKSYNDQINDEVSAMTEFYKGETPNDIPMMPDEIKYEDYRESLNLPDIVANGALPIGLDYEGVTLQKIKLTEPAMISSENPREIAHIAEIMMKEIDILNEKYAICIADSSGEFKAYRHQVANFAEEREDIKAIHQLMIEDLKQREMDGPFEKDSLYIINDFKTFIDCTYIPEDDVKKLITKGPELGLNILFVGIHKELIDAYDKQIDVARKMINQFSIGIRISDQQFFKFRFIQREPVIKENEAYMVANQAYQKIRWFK

[2] = target: T1, EssC with a C-terminal Twin-Strep tag (Staphylococcus aureus); test: pull-down; remark: listed apart in the source

Row | Substance | binding [1] | binding [2]
1 | EssA | no binding (only in the ΔesaA mutant) | binds
2 | EssH (enzyme) | – | binds
